Experimental data as given in the supplement of paper PMC10849652.
Some of the results follow.

By UniProt entry, the sequences of proteins in these tests, tags left out. Where a name states a change or a piece, a line headed by the entry shows the natural chain unless it says otherwise.
UniProt Q9NXW9: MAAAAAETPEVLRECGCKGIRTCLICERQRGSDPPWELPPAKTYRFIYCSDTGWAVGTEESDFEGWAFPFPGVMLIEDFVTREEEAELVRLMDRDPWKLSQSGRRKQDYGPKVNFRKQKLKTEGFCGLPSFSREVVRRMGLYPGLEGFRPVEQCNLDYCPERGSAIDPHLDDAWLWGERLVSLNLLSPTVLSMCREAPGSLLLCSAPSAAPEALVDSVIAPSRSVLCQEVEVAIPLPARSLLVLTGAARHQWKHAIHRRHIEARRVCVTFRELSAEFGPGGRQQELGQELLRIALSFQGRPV
UniProt Q9NYG5, whole entry, looked up: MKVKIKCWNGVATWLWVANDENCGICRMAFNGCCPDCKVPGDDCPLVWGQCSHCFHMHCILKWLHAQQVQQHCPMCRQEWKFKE
UniProt P05062: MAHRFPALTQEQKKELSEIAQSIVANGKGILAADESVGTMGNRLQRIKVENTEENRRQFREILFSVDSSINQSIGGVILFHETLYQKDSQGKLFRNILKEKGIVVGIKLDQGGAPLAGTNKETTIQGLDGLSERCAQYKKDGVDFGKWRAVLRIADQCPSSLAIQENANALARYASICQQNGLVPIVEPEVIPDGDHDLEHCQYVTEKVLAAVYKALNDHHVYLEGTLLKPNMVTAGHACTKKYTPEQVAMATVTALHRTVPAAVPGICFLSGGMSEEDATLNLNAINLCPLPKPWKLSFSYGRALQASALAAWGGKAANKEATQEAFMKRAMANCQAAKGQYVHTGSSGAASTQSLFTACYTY
UniProt Q8N302: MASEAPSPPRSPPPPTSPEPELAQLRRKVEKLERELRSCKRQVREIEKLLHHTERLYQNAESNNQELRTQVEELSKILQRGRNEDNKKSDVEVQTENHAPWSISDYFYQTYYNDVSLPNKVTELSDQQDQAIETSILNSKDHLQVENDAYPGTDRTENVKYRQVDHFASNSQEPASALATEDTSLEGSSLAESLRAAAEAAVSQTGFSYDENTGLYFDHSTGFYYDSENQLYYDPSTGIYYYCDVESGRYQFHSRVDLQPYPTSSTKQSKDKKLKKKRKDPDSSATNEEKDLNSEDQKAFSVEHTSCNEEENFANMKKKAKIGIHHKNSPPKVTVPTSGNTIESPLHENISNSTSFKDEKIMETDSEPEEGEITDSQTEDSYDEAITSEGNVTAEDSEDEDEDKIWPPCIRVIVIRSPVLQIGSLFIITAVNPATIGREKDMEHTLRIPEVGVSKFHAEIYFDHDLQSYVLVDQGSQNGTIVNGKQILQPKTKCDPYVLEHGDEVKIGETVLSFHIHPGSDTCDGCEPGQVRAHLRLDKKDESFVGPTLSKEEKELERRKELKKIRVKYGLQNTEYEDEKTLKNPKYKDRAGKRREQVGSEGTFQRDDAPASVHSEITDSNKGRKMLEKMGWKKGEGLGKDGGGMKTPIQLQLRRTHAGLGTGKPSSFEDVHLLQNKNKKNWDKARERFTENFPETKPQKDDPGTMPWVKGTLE
UniProt Q13686: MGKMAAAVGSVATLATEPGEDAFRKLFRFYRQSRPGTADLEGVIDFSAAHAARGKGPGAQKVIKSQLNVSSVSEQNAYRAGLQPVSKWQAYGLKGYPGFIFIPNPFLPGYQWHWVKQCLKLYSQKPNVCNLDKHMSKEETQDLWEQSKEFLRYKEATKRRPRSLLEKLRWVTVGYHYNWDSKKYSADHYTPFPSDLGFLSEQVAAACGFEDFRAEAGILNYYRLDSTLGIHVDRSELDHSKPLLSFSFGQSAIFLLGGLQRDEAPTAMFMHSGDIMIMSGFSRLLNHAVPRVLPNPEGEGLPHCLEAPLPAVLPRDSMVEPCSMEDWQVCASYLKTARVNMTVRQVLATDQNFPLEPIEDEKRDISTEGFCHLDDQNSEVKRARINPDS
UniProt Q86V24: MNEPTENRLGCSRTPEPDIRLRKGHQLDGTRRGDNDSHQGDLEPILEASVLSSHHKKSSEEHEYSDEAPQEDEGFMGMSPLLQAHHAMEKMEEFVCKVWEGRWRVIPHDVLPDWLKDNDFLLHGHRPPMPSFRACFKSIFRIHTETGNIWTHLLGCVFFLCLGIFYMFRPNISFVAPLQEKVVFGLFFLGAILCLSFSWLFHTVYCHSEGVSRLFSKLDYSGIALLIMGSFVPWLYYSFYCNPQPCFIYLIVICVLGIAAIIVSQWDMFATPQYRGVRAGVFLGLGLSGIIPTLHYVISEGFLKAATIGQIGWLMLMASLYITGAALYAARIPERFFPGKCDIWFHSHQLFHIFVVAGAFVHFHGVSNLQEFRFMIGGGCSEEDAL
UniProt Q9NVV5: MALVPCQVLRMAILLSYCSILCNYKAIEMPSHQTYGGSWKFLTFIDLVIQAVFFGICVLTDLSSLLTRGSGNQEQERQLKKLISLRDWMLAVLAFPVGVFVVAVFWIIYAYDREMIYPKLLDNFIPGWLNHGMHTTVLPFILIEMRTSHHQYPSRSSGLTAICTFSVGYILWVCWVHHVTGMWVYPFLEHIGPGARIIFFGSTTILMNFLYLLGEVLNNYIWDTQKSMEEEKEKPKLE
UniProt P35611: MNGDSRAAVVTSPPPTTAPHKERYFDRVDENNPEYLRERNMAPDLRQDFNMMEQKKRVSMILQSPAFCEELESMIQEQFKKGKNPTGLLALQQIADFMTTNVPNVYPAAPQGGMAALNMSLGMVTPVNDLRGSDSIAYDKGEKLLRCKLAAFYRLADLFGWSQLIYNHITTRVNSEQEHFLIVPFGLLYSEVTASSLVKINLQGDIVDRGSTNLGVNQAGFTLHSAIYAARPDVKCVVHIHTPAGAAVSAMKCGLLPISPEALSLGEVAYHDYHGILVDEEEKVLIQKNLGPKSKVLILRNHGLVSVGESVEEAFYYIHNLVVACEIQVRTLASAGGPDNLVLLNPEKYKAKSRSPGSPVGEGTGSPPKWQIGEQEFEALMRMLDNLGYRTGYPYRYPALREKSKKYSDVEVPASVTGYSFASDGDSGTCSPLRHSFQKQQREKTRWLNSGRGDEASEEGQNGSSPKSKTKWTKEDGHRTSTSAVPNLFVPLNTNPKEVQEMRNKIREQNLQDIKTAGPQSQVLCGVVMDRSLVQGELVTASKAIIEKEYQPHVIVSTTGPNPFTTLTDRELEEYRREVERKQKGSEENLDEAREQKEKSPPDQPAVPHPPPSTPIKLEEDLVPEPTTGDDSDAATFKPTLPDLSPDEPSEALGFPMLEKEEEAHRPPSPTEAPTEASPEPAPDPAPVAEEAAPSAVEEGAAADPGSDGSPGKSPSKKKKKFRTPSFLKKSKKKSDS
UniProt P51857: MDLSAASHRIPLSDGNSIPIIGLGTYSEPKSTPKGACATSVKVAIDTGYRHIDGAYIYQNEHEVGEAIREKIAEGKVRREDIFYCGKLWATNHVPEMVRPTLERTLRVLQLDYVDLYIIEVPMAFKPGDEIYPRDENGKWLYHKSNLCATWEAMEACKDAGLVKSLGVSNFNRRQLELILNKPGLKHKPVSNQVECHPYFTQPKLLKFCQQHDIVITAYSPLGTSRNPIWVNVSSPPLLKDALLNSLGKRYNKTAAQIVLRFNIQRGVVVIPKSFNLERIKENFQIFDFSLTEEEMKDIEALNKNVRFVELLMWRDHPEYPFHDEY
UniProt P55008: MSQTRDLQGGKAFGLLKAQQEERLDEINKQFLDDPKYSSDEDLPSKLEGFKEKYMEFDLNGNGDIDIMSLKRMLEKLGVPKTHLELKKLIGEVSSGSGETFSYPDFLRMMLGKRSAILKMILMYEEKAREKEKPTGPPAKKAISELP
UniProt Q96Q42: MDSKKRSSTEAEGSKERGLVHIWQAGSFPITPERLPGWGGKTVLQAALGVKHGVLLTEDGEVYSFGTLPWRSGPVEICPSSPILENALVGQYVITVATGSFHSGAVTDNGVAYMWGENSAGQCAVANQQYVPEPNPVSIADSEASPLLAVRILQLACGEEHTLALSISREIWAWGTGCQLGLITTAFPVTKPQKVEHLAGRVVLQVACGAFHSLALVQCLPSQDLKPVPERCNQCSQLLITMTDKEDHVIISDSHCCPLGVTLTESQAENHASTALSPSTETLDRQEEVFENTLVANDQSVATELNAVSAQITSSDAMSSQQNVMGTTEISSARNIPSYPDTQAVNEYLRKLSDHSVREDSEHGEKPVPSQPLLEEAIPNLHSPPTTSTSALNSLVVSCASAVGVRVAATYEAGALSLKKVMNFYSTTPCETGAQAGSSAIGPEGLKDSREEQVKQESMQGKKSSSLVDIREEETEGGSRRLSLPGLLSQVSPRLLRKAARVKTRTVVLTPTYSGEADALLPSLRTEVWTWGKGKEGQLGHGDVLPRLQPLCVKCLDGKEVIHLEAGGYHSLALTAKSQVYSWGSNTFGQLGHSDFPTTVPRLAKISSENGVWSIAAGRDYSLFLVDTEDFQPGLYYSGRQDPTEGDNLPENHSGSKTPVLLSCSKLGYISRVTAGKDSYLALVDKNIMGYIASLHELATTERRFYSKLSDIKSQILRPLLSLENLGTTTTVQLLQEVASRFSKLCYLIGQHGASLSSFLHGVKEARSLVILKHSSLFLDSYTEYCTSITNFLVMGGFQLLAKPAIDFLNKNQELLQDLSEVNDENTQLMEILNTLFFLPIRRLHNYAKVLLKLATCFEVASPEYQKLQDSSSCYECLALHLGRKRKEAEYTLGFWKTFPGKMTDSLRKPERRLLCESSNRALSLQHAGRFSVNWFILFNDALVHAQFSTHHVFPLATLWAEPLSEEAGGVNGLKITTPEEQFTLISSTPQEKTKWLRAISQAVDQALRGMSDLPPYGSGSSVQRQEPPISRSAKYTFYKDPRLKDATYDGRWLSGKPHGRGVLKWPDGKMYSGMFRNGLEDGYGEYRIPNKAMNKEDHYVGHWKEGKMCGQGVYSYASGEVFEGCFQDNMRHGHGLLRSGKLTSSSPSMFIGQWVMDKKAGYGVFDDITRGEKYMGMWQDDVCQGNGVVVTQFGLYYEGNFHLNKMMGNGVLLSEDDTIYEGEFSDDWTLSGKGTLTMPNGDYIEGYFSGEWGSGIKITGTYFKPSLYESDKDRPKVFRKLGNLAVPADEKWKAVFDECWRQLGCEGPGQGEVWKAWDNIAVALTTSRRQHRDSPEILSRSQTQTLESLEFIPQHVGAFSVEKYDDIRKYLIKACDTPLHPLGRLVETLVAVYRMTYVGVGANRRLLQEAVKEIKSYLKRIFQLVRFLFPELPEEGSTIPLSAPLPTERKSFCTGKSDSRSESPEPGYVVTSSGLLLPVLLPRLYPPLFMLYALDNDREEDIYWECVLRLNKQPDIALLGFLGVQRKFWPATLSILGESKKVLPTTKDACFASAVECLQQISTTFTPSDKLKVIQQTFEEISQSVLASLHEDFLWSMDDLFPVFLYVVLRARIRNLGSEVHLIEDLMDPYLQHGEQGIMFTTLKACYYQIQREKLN
UniProt Q9H2P0: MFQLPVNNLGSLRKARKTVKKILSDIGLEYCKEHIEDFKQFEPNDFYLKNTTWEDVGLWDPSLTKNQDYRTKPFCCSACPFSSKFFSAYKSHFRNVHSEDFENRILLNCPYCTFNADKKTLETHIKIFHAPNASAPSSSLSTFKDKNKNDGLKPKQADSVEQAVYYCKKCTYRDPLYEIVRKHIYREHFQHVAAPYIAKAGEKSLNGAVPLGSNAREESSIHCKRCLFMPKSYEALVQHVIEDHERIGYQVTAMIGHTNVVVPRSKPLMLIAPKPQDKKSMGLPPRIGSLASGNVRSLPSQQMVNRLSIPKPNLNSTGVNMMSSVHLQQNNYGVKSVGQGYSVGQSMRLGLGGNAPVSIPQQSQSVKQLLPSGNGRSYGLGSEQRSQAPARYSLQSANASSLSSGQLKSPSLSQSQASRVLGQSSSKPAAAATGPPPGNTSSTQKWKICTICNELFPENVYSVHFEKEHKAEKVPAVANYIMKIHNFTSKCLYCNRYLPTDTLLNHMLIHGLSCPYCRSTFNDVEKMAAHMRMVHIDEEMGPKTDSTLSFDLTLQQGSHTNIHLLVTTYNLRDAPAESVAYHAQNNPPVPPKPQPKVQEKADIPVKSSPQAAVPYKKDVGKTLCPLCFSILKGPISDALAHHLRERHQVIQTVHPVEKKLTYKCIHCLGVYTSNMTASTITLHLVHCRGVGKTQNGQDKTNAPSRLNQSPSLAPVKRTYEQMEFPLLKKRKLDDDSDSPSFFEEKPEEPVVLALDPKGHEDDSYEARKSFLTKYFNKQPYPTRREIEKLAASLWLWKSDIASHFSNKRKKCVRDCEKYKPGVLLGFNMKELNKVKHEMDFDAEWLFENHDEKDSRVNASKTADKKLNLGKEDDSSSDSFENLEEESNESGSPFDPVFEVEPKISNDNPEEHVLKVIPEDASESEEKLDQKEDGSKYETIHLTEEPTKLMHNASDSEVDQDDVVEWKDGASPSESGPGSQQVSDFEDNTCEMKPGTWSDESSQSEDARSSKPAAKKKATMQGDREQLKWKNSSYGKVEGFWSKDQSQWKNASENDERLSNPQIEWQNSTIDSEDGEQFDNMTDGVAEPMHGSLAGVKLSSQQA
UniProt Q9BS18, whole entry, looked up: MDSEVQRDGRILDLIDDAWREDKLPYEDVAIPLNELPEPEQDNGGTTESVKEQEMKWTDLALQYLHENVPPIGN

Key:
Experiment in all cases: log2 fold change, soluble protein after heating vs DMSO (PISA); higher = thermal stabilisation; K562 cells, 10 uM, 30 min; active = over 0.2 and 3.5 SD of the protein, either way, in both replicates (recomputed)
[1] = compound: CC[C@@H]1C(=O)N(C)c2cnc(Nc3ccc(C(=O)NC4CCN(C)CC4)cc3OC)nc2N1C1CCCC1
Outline: (§1)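 K562 cells at 2×10^6 cells/mL were treated with 10 μM compound for 30 min. Aliquots were heated for 3 min across 48°C-58°C, pooled, and extracted in PBS with 0.5% NP-40 at 4°C; soluble protein was the supernatant after 21,000xg for 90 min. Soluble protein was quantified by TMTpro 16plex LC-MS/MS with channel sums equalised, and reported as log2 fold change in thermal stability against DMSO controls, with values from duplicates.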

epoxomicin = compound: CC[C@H](C)[C@@H](C(=O)N[C@@H]([C@@H](C)O)C(=O)N[C@@H](CC(C)C)C(=O)[C@]1(CO1)C)NC(=O)[C@H]([C@@H](C)CC)N(C)C(=O)C [epoxomicin]
Outline: as §1

[2] = compound: CCn1cc(-c2ccnc3[nH]c(-c4cccc(CN(C)C)c4)cc23)c(-c2ccc(NC(=O)N(C)C)cc2)n1
Outline: as §1

rosiglitazone = compound: CN(CCOC1=CC=C(C=C1)C[C@H]2C(=O)NC(=O)S2)C3=CC=CC=N3 (racemic) [rosiglitazone]
Outline: as §1

[3] = compound: CN1C2=C(C3=C1C(=O)N(N=C3)CC4=CC(=CC=C4)N)SC(=C2)S(=O)C
Outline: as §1

[4] = compound: CN1CCC(CNc2ccc3ncc(-c4cccc(OC(F)(F)F)c4)n3n2)CC1
Outline: as §1

[5] = compound: CC[C@H](C)N1C=C(C2=C(C=C(C=C21)C3=CN=C(C=C3)N4CCNCC4)C(=O)NCC5=C(C=C(NC5=O)C)C)C
Outline: as §1

[6] = compound: CCn1c(C(=O)N(C2CC2)C2CC2)cc2c3c(ncn3C)c(Nc3cc(C)n(C)n3)nc21
Outline: as §1

[7] = compound: CN(C)CC(=O)Nc1ccc2[nH]c(=O)c3ccccc3c2c1
Outline: as §1

volasertib = compound: CC[C@@H]1C(=O)N(C)c2cnc(Nc3ccc(C(=O)N[C@H]4CC[C@H](N5CCN(CC6CC6)CC5)CC4)cc3OC)nc2N1C(C)C [volasertib]
Outline: as §1

ALKBH8 isoform 4 (UniProt Q96BT7) was tested, and the log2 fold change [1] was inactive: 0.107, the log2 fold change (epoxomicin) was inactive: -0.001 and the log2 fold change [2] was inactive: -0.2. The log2 fold change (rosiglitazone) was inactive: 0.116, the log2 fold change [3] was inactive: 0.223 and the log2 fold change [4] was inactive: -0.07.
With AHCTF1 isoform 2 (UniProt Q8WYP5) the log2 fold change [1] was inactive: 0.027, the log2 fold change [5] was inactive: 0.065 and the log2 fold change (epoxomicin) was inactive: -0.034. The log2 fold change [6] was inactive: -0.056, the log2 fold change [2] was inactive: 0 and the log2 fold change [7] was inactive: 0.108. For the same target, the log2 fold change (rosiglitazone) was inactive: 0.032, the log2 fold change [3] was inactive: 0.118 and the log2 fold change [4] was inactive: -0.017.
In the case of AKT2 (UniProt P31751), the log2 fold change [1] is reported as inactive: -0.017, the log2 fold change (volasertib) is reported as inactive: -0.253 and the log2 fold change [5] is reported as inactive: 0.128. For the same target, the log2 fold change (epoxomicin) was inactive: 0.079, the log2 fold change [2] was inactive: -0.175 and the log2 fold change [7] was inactive: -0.026. For the same target, the log2 fold change [3] was inactive: -0.038 and the log2 fold change [4] was inactive: -0.119.
For ADRM1 (UniProt Q16186), the log2 fold change [1] was inactive: 0.122, the log2 fold change (volasertib) was inactive: 0.197 and the log2 fold change [5] was inactive: 0.024. For the same target, the log2 fold change (epoxomicin) was inactive: -0.083, the log2 fold change [2] was inactive: -0.013 and the log2 fold change [7] was inactive: -0.006. The log2 fold change [3] was inactive: 0.045 and the log2 fold change [4] was inactive: 0.062.
AKR1C3 (UniProt P42330) was tested, and the log2 fold change [1] was inactive: 0.011, the log2 fold change (volasertib) was inactive: 0.009 and the log2 fold change [5] was inactive: -0.01. For the same target, the log2 fold change (epoxomicin) was inactive: 0, the log2 fold change [2] was inactive: -0.247 and the log2 fold change [7] was inactive: 0.067. The log2 fold change [3] was inactive: -0.127 and the log2 fold change [4] was inactive: 0.214.
For ALDH7A1 (UniProt P49419), the log2 fold change [1] was inactive: -0.005, the log2 fold change (epoxomicin) was inactive: 0.055 and the log2 fold change [2] was inactive: 0.19. The log2 fold change [4] was inactive: -0.018.
In the case of AMD1 (UniProt P17707), the log2 fold change [1] is reported as inactive: 0.061, the log2 fold change (volasertib) is reported as inactive: -0.098 and the log2 fold change [5] is reported as inactive: 0.099. The log2 fold change (epoxomicin) was inactive: 0.057, the log2 fold change [2] was inactive: -0.033 and the log2 fold change [7] was inactive: -0.101. For the same target, the log2 fold change [4] was inactive: -0.091.
ALKBH4 (UniProt Q9NXW9) was tested, and the log2 fold change [1] was inactive: -0.064, the log2 fold change (volasertib) was inactive: -0.263 and the log2 fold change (epoxomicin) was inactive: 0.117. The log2 fold change [2] was inactive: -0.023, the log2 fold change [7] was inactive: 0.056 and the log2 fold change [3] was inactive: -0.077. The log2 fold change [4] was inactive: -0.082.
With ALDH2 (UniProt P05091) the log2 fold change [1] was inactive: -0.025, the log2 fold change (volasertib) was inactive: 0.06 and the log2 fold change [5] was inactive: -0.009. The log2 fold change (epoxomicin) was inactive: -0.038, the log2 fold change [2] was inactive: -0.042 and the log2 fold change [7] was inactive: 0.029. The log2 fold change [3] was inactive: -0.048 and the log2 fold change [4] was inactive: -0.006.
For ANAPC11 (UniProt Q9NYG5), the log2 fold change [1] was inactive: -0.073, the log2 fold change [6] was inactive: -0.307 and the log2 fold change [7] was inactive: -0.044. The log2 fold change (rosiglitazone) was inactive: -0.064 and the log2 fold change [3] was inactive: -0.044.
With ALDH2 isoform 2 (UniProt P05091) the log2 fold change [1] was inactive: 0.183, the log2 fold change (volasertib) was inactive: 0.033 and the log2 fold change (epoxomicin) was inactive: -0.176. For the same target, the log2 fold change [2] was inactive: -0.014, the log2 fold change [7] was inactive: -0.015 and the log2 fold change [4] was inactive: -0.072.
In the case of ALKBH7 (UniProt Q9BT30), the log2 fold change [2] is reported as inactive: -0.048 and the log2 fold change [4] is reported as inactive: -0.2.
For ALDOB (UniProt P05062), the log2 fold change (epoxomicin) was inactive: -0.059.
AFF4 (UniProt Q9UHB7) was tested, and the log2 fold change (epoxomicin) was inactive: -0.046, the log2 fold change [6] was inactive: -0.008 and the log2 fold change [2] was inactive: 0.132. For the same target, the log2 fold change (rosiglitazone) was inactive: 0.021, the log2 fold change [3] was inactive: -0.049 and the log2 fold change [4] was inactive: -0.01.
AGAP1 (UniProt Q9UPQ3) was tested, and the log2 fold change [6] was inactive: 0.025, the log2 fold change [7] was inactive: 0.152 and the log2 fold change [3] was inactive: -0.01.
In the case of ALG13 isoform 2 (UniProt Q9NP73), the log2 fold change (volasertib) is reported as inactive: 0.048, the log2 fold change [5] is reported as inactive: 0.107 and the log2 fold change (epoxomicin) is reported as inactive: 0.074. The log2 fold change [2] was inactive: -0.005, the log2 fold change [7] was inactive: 0.001 and the log2 fold change (rosiglitazone) was inactive: 0.018. For the same target, the log2 fold change [3] was inactive: 0.07 and the log2 fold change [4] was inactive: 0.046.
For ADPRH (UniProt P54922), the log2 fold change (volasertib) was inactive: 0.108, the log2 fold change [5] was inactive: 0.036 and the log2 fold change (epoxomicin) was inactive: -0.04. For the same target, the log2 fold change [2] was inactive: 0.097, the log2 fold change [7] was inactive: 0.1 and the log2 fold change [4] was inactive: -0.313.
In the case of AKAP11 (UniProt Q9UKA4), the log2 fold change [1] is reported as inactive: -0.115, the log2 fold change [2] is reported as inactive: 0.042 and the log2 fold change [4] is reported as inactive: 0.175.
With AGGF1 (UniProt Q8N302) the log2 fold change [6] was inactive: -0.092 and the log2 fold change (rosiglitazone) was inactive: -0.056.
In the case of AHSP (UniProt Q9NZD4), the log2 fold change [5] is reported as inactive: 0.05 and the log2 fold change [6] is reported as inactive: -0.252.
With AKNA (UniProt Q7Z591) the log2 fold change (volasertib) was inactive: 0.015.
In the case of ALKBH1 (UniProt Q13686), the log2 fold change (volasertib) is reported as inactive: 0.019, the log2 fold change [5] is reported as inactive: -0.041 and the log2 fold change (epoxomicin) is reported as inactive: 0.041. The log2 fold change [2] was inactive: -0.085, the log2 fold change [7] was inactive: -0.149 and the log2 fold change (rosiglitazone) was inactive: -0.008. The log2 fold change [3] was inactive: -0.048 and the log2 fold change [4] was inactive: -0.071.
In the case of ADGRD1 isoform 4 (UniProt Q6QNK2), the log2 fold change [1] is reported as inactive: -0.206, the log2 fold change [7] is reported as inactive: 0.082 and the log2 fold change [3] is reported as inactive: 0.126.
With ADIPOR2 (UniProt Q86V24) the log2 fold change (volasertib) was inactive: -0.071, the log2 fold change [6] was inactive: -0.015 and the log2 fold change [2] was inactive: 0.049. For the same target, the log2 fold change [7] was inactive: -0.044, the log2 fold change (rosiglitazone) was inactive: 0.104 and the log2 fold change [3] was inactive: -0.09. The log2 fold change [4] was inactive: -0.131.
In the case of ALDH3A2 isoform 2 (UniProt P51648), the log2 fold change [6] is reported as inactive: 0.056, the log2 fold change [7] is reported as inactive: -0.34 and the log2 fold change (rosiglitazone) is reported as inactive: -0.058. The log2 fold change [3] was inactive: 0.2.
With ADCY7 (UniProt P51828) the log2 fold change [5] was inactive: 0.031, the log2 fold change (epoxomicin) was inactive: -0.134 and the log2 fold change [2] was inactive: 0.151. The log2 fold change [3] was inactive: 0.132 and the log2 fold change [4] was inactive: -0.032.
With AMOTL1 (UniProt Q8IY63) the log2 fold change (rosiglitazone) was inactive: -0.01.
With ADGRL1 (UniProt O94910) the log2 fold change [2] was inactive: -0.235 and the log2 fold change [4] was inactive: 0.092.
For AGTPBP1 isoform 3 (UniProt Q9UPW5), the log2 fold change [7] was inactive: -0.362 and the log2 fold change [3] was inactive: 0.103.
For AIG1 (UniProt Q9NVV5), the log2 fold change [2] was inactive: -0.268, the log2 fold change [3] was inactive: 0.297 and the log2 fold change [4] was inactive: 0.
With ADD1 isoform 4 (UniProt P35611) the log2 fold change (epoxomicin) was inactive: -0.431, the log2 fold change [2] was inactive: -0.001 and the log2 fold change [4] was inactive: 0.086.
In the case of AFMID isoform 2 (UniProt Q63HM1), the log2 fold change [7] is reported as inactive: -0.104.
For AMZ2 (UniProt Q86W34), the log2 fold change (volasertib) was inactive: -0.081, the log2 fold change (epoxomicin) was inactive: 0.024 and the log2 fold change [3] was inactive: 0.121.
AKR1D1 (UniProt P51857) was tested, and the log2 fold change (volasertib) was inactive: 0.068, the log2 fold change [2] was inactive: -0.087 and the log2 fold change [7] was inactive: 0.016. The log2 fold change (rosiglitazone) was inactive: 0.007, the log2 fold change [3] was inactive: 0.139 and the log2 fold change [4] was inactive: 0.124.
With ADD2 isoform 9 (UniProt P35612) the log2 fold change (volasertib) was inactive: -0.1.
AMMECR1 (UniProt Q9Y4X0) was tested, and the log2 fold change (epoxomicin) was inactive: 0.098, the log2 fold change [6] was inactive: -0.089 and the log2 fold change [7] was inactive: -0.12. The log2 fold change [3] was inactive: 0.206.
AMBRA1 isoform 5 (UniProt Q9C0C7) was tested, and the log2 fold change (epoxomicin) was inactive: -0.005, the log2 fold change [7] was inactive: 0.056 and the log2 fold change (rosiglitazone) was inactive: 0.028. For the same target, the log2 fold change [3] was inactive: -0.014.
In the case of AIF1 (UniProt P55008), the log2 fold change (volasertib) is reported as inactive: 0.047, the log2 fold change (epoxomicin) is reported as active: -0.727 and the log2 fold change [7] is reported as inactive: 0.01.
With ADCY3 (UniProt O60266) the log2 fold change (volasertib) was inactive: -0.098, the log2 fold change [6] was inactive: 0.007 and the log2 fold change [2] was inactive: -0.063. For the same target, the log2 fold change [7] was inactive: -0.209, the log2 fold change [3] was inactive: -0.016 and the log2 fold change [4] was inactive: -0.173.
In the case of ALOX5 (UniProt P09917), the log2 fold change [3] is reported as inactive: -0.146.
With ALS2 (UniProt Q96Q42) the log2 fold change (volasertib) was inactive: 0.137, the log2 fold change (epoxomicin) was inactive: -0.307 and the log2 fold change [6] was inactive: 0.027.
For ADNP (UniProt Q9H2P0), the log2 fold change [5] was inactive: 0.008, the log2 fold change [2] was inactive: 0.18 and the log2 fold change [4] was inactive: -0.166.
With ADPRM (UniProt Q3LIE5) the log2 fold change [6] was inactive: 0.017 and the log2 fold change (rosiglitazone) was inactive: 0.127.
ANAPC13 (UniProt Q9BS18) was tested, and the log2 fold change (epoxomicin) was inactive: 0.366.
